Here are results for 42 sequences from article PMC7819943, “Rice protein-binding microarrays: a tool to detect cis-acting elements near promoter regions in rice”.

The list shows a part of the results.

The assay concerns the target T1, OsSMF1 (Oryza sativa, UniProt Q6ZLB0 1-436).
T1 sequence: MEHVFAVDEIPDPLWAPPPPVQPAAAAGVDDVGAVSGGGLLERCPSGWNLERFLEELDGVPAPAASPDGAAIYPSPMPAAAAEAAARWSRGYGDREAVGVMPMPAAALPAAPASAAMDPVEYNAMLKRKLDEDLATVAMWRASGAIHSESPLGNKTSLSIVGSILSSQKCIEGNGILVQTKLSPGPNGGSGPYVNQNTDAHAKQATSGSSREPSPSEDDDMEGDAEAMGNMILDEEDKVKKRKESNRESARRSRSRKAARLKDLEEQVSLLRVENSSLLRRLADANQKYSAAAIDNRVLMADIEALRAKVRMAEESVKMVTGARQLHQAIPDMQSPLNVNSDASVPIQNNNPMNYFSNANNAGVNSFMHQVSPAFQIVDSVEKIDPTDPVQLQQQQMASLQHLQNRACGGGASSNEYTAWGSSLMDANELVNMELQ
As to the kind of experiment: protein-binding microarray (RPBM); PBS, 2% BSA, 51.3 ng/ul salmon testes DNA, 50 uM zinc acetate, 200 nM TF, 25 C, 1 h; high values mean tight binding. Particulars: protein: recombinant; tags: N-terminal polyhistidine and DsRed monomer fusion (pET32a); chain copies: 2; label: CyDye5-dUTP incorporated in the synthesized complementary strand; 3' TTTTT single-stranded linker to array surface; dsDNA, one strand shown. The gist of the method:
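Polyhistidine-tagged DsRed fusions of transcription factors, joined at the N-terminus, were expressed in E. coli BL21-CodonPlus and isolated on Ni–NTA. They were incubated at 200 nM for 1 h at 25 °C on a custom Agilent array, double-stranded and BSA-blocked, in PBS with 2% BSA, salmon testes DNA and 50 µM zinc acetate. The binding signal is per-feature fluorescence intensity (arbitrary units) read on an Axon 4000B scanner after washing.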
With “AGTTGGATGGATGGATTTGGATGAATGGATGGGGACAAACCGGAGTCACCTAGTGCAG”, the binding signal was 3320 fluorescence intensity (a.u.).
“TCCATGATTAGTCATAAAGTGTTACAGTAATCTACATGTGCGGAGTCACCTAGTGCAG”: the binding signal was 3670 fluorescence intensity (a.u.).
With “TTTTGAACATTGCGTCATACATTAATACCTACATATTTCACGGAGTCACCTAGTGCAG”, the binding signal was 6960 fluorescence intensity (a.u.).
As for “TTCATTACTGGAGAGATATGCATCATCAGTGGAAGCTTATCGGAGTCACCTAGTGCAG”, the binding signal was 3340 fluorescence intensity (a.u.).
For “GTCCGCCACGTGTCGCGTGGCCCACCGTGGCCCTCATGGGCGGAGTCACCTAGTGCAG” the value was 37400 fluorescence intensity (a.u.); for “CATCTTACATCTTGATCACTCAGTAAGTTCTCCCATGTATCGGAGTCACCTAGTGCAG”, 33300 fluorescence intensity (a.u.).
Turning to “AGTCAATTATATGGGTATGGGTACACGTTACCCGCGTGGGCGGAGTCACCTAGTGCAG”, the binding signal was 4420 fluorescence intensity (a.u.).
For “TAGGTTCACCAAGCTTCCTGATGATGTCTTGCTCAACATCCGGAGTCACCTAGTGCAG”, the binding signal was 3440 fluorescence intensity (a.u.).
“GCTTTTACCGTTTCATGTCACACTTGTGTAGCTGTATTTTCGGAGTCACCTAGTGCAG”: the binding signal is 3320 fluorescence intensity (a.u.).
“CTATATCCGTCGCCTCTTGGCGGATGTGCGGGATTCTGCGCGGAGTCACCTAGTGCAG”: the binding signal is 3150 fluorescence intensity (a.u.).
As to “CGGGTAGGCGAACACGTCGCTGACGCCGCACCGCTCCAGCCGGAGTCACCTAGTGCAG”, the binding signal is 6760 fluorescence intensity (a.u.).
As for “ACCACAATCCACCCCTTGTCTGAGTCAGTGGTTGGTCATCCGGAGTCACCTAGTGCAG”, the binding signal was 5570 fluorescence intensity (a.u.).
For “CAGTTCCGATTGACAAGTCACGTTGACAATTCAAGTCAGACGGAGTCACCTAGTGCAG” the value was 3940 fluorescence intensity (a.u.); for “ATGAGCTCGTGCGTTGCTGATGGCGTCAGGACGATACCAGCGGAGTCACCTAGTGCAG”, 4660 fluorescence intensity (a.u.); for “GCTACTACGAAGGCGTAAACGTAATCGCCTCTCACGTCAGCGGAGTCACCTAGTGCAG”, 3550 fluorescence intensity (a.u.).
“TGGGAGGCAGCAGCCCGGCGGTGGTGGCGGATTGGCCGGGCGGAGTCACCTAGTGCAG”: the binding signal is 4000 fluorescence intensity (a.u.).
“CCGCGTCCGCGTCCCCGCCGACCTGCGCCACGCGCGCTACCGGAGTCACCTAGTGCAG”: the binding signal is 3720 fluorescence intensity (a.u.).
The value for “AAGAGCCGAATCGAAGGCATCAGCACAATGGATGCCGACGCGGAGTCACCTAGTGCAG” was 3440 fluorescence intensity (a.u.); that for “ACACAAGGGGAACGGGATAAAATTTATGGGCACGTAAGGGCGGAGTCACCTAGTGCAG” was 3480 fluorescence intensity (a.u.); that for “GCTGACGTGTACAGAGCATGCCAGCTCAGCATCCACGTCACGGAGTCACCTAGTGCAG” was 34100 fluorescence intensity (a.u.).
As for “AACCAACTCTATCAGCGACACGCAACCTGATCGATTCCCCCGGAGTCACCTAGTGCAG”, the binding signal is 4110 fluorescence intensity (a.u.).
In the case of “GGATACTAAGGCCATCCCCAACCCTCCATGTCATCTAGTTCGGAGTCACCTAGTGCAG”, the binding signal is 3200 fluorescence intensity (a.u.).
The value for “TACTCTGCCAATCTAAATTAATGATGTATGATATGGTCTCCGGAGTCACCTAGTGCAG” was 4340 fluorescence intensity (a.u.).
For the sequence “AGCGGCCCGAACCTATATAATCCCCTGTTCTCGTACACAACGGAGTCACCTAGTGCAG”, the binding signal was 8800 fluorescence intensity (a.u.).
As for “GCAACTAGCGCTGGCCGGTGTCCACCACTGCTAGTCTCTGCGGAGTCACCTAGTGCAG”, the binding signal was 31800 fluorescence intensity (a.u.).
As to “ATTGAAGTAGTTACTGTTAATCGTGGCATAGTTGGCAACGCGGAGTCACCTAGTGCAG”, the binding signal is 4040 fluorescence intensity (a.u.).
Take “CCCTTCCTTCCTTCCTTTGCATCATCATCATCAACCCAATCGGAGTCACCTAGTGCAG”: the binding signal is 4440 fluorescence intensity (a.u.).
In the case of “GGTATCTGATTTTGCGGAAGAAGTGTCATCTGGGGTAAATCGGAGTCACCTAGTGCAG”, the binding signal was 3990 fluorescence intensity (a.u.).
On to “ATCTGTTAGGTATTTAATTTATTTTCTTTTGCTATGTCAGCGGAGTCACCTAGTGCAG”, for which the binding signal was 3880 fluorescence intensity (a.u.).
As for “GCGAGCTGAAGAGGAGGAGGGGAGTGGAGGAGGCGGCGCTCGGAGTCACCTAGTGCAG”, the binding signal was 3530 fluorescence intensity (a.u.).
Turning to “TTTGAACTATATATATCCGTGTCTGGTCATCTGGTGACATCGGAGTCACCTAGTGCAG”, the binding signal is 4590 fluorescence intensity (a.u.).
Turning to “ATTCGTTATACACTGACAAGTCATATCATGTAATAGGTTGCGGAGTCACCTAGTGCAG”, the binding signal was 4270 fluorescence intensity (a.u.).
Consider “TACAGAAGAATCCTCGCTTCTGTTTGTTATTCCACGCTTCCGGAGTCACCTAGTGCAG”, for which the binding signal is 3530 fluorescence intensity (a.u.).
“CATCATCTCCCCTTGTTGACTCACAATAACACAAACCCATCGGAGTCACCTAGTGCAG”: the binding signal was 5390 fluorescence intensity (a.u.).
Take “GCTAGCGTACGCATACATCAGCTTGTTAACACTTGTTGATCGGAGTCACCTAGTGCAG”: the binding signal is 23000 fluorescence intensity (a.u.).
“AGACCGCACGTGACACTGCAGCTGGGACCCACCATTTCCCCGGAGTCACCTAGTGCAG”: the binding signal was 5390 fluorescence intensity (a.u.).
Regarding “ACGGACTCATAACAGTCACTGCTGACGTAAGCCACACACACGGAGTCACCTAGTGCAG”, the binding signal is 12200 fluorescence intensity (a.u.).
The value for “ATCACATCGTTCCAATTTTGACGTGAACTAAACACAACCTCGGAGTCACCTAGTGCAG” was 3860 fluorescence intensity (a.u.); that for “GGTGGGTGCAGAGGATGAAGGACGTAAGGGTGGATTGTCGCGGAGTCACCTAGTGCAG” was 3500 fluorescence intensity (a.u.).
As to “CTTCGACGTGAATGGCCAATCAAAAGTTAATCCCACTTAACGGAGTCACCTAGTGCAG”, the binding signal is 7980 fluorescence intensity (a.u.).
Regarding “GGCCGAGCCGCCCGTTTCGTTCTATCAGACTCTTCTTTATCGGAGTCACCTAGTGCAG”, the binding signal was 3200 fluorescence intensity (a.u.).
Regarding “GGCCCATCGGCTAAGCACCCACATGTCGCGCTCGCACGCACGGAGTCACCTAGTGCAG”, the binding signal was 3640 fluorescence intensity (a.u.).
